Experimental findings from PubChem BioAssay AID192 (DTP/NCI, 2004) are described below.

The list shows only some results of the screen, not a fair sample: it is rich in T/C values a quarter to a half above the control, in often repeated tests (any T/C) and in doses without a T/C. Further doses and runs are listed elsewhere. T/C: endpoint of the treated group in % of that of the vehicle group. Some doses have a count of surviving animals in place of a T/C: the source files T/C as zero there, which appears to mark a toxic dose or a test without result, not a measured value. Some doses without a T/C left all or most animals alive at the check, yet need not have been tolerated: the source hardly ever lists a survival T/C far under the control, and the zero likely stands for such cases as well. Counts of survivors are from the toxicity check (mostly the fifth day) where no day follows; animals may have died later. Schedule codes are those of the source, read here as Q, the interval in days (D) or hours (H), X, the number of doses. Some entries hold several experiments; the results are listed from low to high. For survival time, this PubChem deposit counts one and a half times the control or more as active, and values a quarter to a half above the control carry no call in these data; other NCI protocols may use other cut-offs. Some T/C values are followed by the survivors on the day toxicity was checked, most often the fifth; where none is given, no animal had died by that day.

For the test, the system named is BDF1 mice, B16 melanoma ip, median survival T/C. Kind of test: NCI In Vivo Anticancer Drug Screen. Data for tumor model B16 Melanoma (intraperitoneal) in B6D2F1 (BDF1) mice. To be noted: T/C endpoint: median survival time, higher T/C = longer survival. The gist of the method: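 Each result divides a survival or tumor-size measurement in the compound-treated group by the same measurement in the vehicle group.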

Where [1] appears, read: dose: 200.0 mg/kg/injection, schedule: Q01DX009 (ip), vehicle: Klucel (hydroxypropylcellulose) (HPC).
The mark [2] stands for this setting: dose: 400.0 mg/kg/injection, schedule: Q01DX009 (ip), vehicle: Klucel (hydroxypropylcellulose) (HPC).
The mark [3] stands for this setting: dose: 100.0 mg/kg/injection, schedule: Q01DX009 (ip), vehicle: Klucel (hydroxypropylcellulose) (HPC).
The mark [4] stands for this setting: dose: 200.0 mg/kg/injection, schedule: Q01DX009 (ip), vehicle: saline with Tween-80.
Where [5] appears, read: dose: 50.0 mg/kg/injection, schedule: Q01DX009 (ip), vehicle: Klucel (hydroxypropylcellulose) (HPC).
Where [6] appears, read: dose: 12.5 mg/kg/injection, schedule: Q01DX009 (ip), vehicle: saline with Tween-80.
The mark [7] stands for this setting: dose: 400.0 mg/kg/injection, schedule: Q01DX009 (ip), vehicle: saline with Tween-80.

`CN1c2c(nc(N)[nH]c2=O)NCC1CCNc1ccc(C(=O)NC(CCC(=O)O)C(=O)O)cc1` (configuration not stated): the survivor count was 8 of 10 under setting [1]; 10 of 10 under setting [2]; 10 of 10 (dose: 800.0 mg/kg/injection, schedule: Q01DX009 (ip), vehicle: Klucel (hydroxypropylcellulose) (HPC)). In addition, the T/C (dose: 800.0 mg/kg/injection, schedule: Q01DX009 (ip), vehicle: sodium bicarbonate) was 127 % of control.
On to `OC1CCN2CCCc3cccc1c32` (configuration not stated), for which the survivor count (dose: 0.37 mg/kg/injection, schedule: Q01DX009 (ip), vehicle: DMSO) is reported as 10 of 10; the survivor count (dose: 0.75 mg/kg/injection, schedule: Q01DX009 (ip), vehicle: DMSO) is on record as 8 of 10; the survivor count (dose: 1.5 mg/kg/injection, schedule: Q01DX009 (ip), vehicle: DMSO) was 10 of 10; the survivor count (dose: 3.0 mg/kg/injection, schedule: Q01DX009 (ip), vehicle: DMSO) was 10 of 10; the survivor count (dose: 6.0 mg/kg/injection, schedule: Q01DX009 (ip), vehicle: DMSO) is recorded as 10 of 10.
With `CC(=O)OCC(OC(C)=O)C(OC(C)=O)C(OC(C)=O)C(C#N)OC(C)=O` (configuration not stated), the survivor count (dose: 400.0 mg/kg/injection, schedule: Q04DX003 (ip), vehicle: saline with Tween-80) is recorded as 10 of 10.
For `CS(=O)(=O)c1cc([N+](=O)[O-])cc([N+](=O)[O-])c1Cl`, the survivor count is, setting by setting: (dose: 5.0 mg/kg/injection, schedule: Q01DX009 (ip), vehicle: saline with Tween-80) 6 of 6; (dose: 10.0 mg/kg/injection, schedule: Q01DX009 (ip), vehicle: saline with Tween-80) 6 of 6.
Consider `O=[N+]([O-])c1cc2c(c([N+](=O)[O-])c1)OCOC2`, for which the survivor count runs as follows: under setting [3], 6 of 6; under setting [2], 5 of 6.
Regarding `CCCCNc1cc(Nc2ccc(Br)cc2)nc(N)n1`, the survivor count under setting [4] is given as 9 of 10.
Regarding `CCCCCCCCCCC(O)CN1CCN(c2ccc(C)cc2)CC1` (configuration not stated), the survivor count by setting is: under setting [5], 10 of 10; under setting [3], 10 of 10.
Take `ClCCN(CCCl)CCN1c2ccccc2Sc2ccccc21`: the T/C reads like this: (dose: 0.78 mg/kg/injection, schedule: Q01DX009 (ip), vehicle: saline with Tween-80) 125 % of control; (dose: 3.12 mg/kg/injection, schedule: Q01DX009 (ip), vehicle: saline with Tween-80) 127 and 127 % of control [9 of 10 alive]; (dose: 6.25 mg/kg/injection, schedule: Q01DX009 (ip), vehicle: saline with Tween-80) 134 % of control; under setting [6], 147 % of control; (dose: 12.5 mg/kg/injection, schedule: Q04DX003 (ip), vehicle: Klucel (hydroxypropylcellulose) (HPC)) 137 % of control; (dose: 25.0 mg/kg/injection, schedule: Q04DX003 (ip), vehicle: Klucel (hydroxypropylcellulose) (HPC)) 144 % of control. Also, the survivor count under setting [6] was 7 of 10; the survivor count (dose: 25.0 mg/kg/injection, schedule: Q01DX009 (ip), vehicle: saline with Tween-80) was 0 of 10; the survivor count (dose: 50.0 mg/kg/injection, schedule: Q04DX003 (ip), vehicle: Klucel (hydroxypropylcellulose) (HPC)) is listed as 10 of 10.
On to `CCn1c(O)c(C=N)c(=O)n(CC)c1=O`, for which the survivor count by setting is: (dose: 75.0 mg/kg/injection, schedule: Q04DX003 (ip), vehicle: Klucel (hydroxypropylcellulose) (HPC)) 10 of 10; (dose: 300.0 mg/kg/injection, schedule: Q04DX003 (ip), vehicle: Klucel (hydroxypropylcellulose) (HPC)) 9 of 10.
Turning to `CCCCCCCCCCCCCCCCCC[N+](C)(C)C` (tested in a mixture with another compound), the survivor count (dose: 8.0 mg/kg/injection, schedule: Q01DX009 (ip), vehicle: saline sonified) is recorded as 6 of 6.
For `[F][Sn]([F])([c]1ccccc1)[c]1ccccc1`, the survivor count is on record as 0 of 10 (dose: 25.0 mg/kg/injection, schedule: Q01DX009 (ip), vehicle: Klucel (hydroxypropylcellulose) (HPC)); 0 of 10 under setting [5]; 0 of 10 under setting [3]; 0 of 10 under setting [1].
In the case of `COc1cc2c(c(OC)c1OC)-c1ccc(OC)c(=O)cc1[C@@H](NC(=O)CCl)CC2`, the T/C (dose: 0.06 mg/kg/injection, schedule: Q01DX009 (ip), vehicle: saline with Tween-80) is 128 and 129 % of control; the T/C (dose: 0.13 mg/kg/injection, schedule: Q01DX009 (ip), vehicle: saline with Tween-80) is 133 and 136 % of control; the T/C (dose: 0.25 mg/kg/injection, schedule: Q01DX009 (ip), vehicle: saline with Tween-80) was 135 % of control. The survivor count is 9 of 10 (dose: 0.5 mg/kg/injection, schedule: Q01DX009 (ip), vehicle: saline with Tween-80); 7 of 10 and 9 of 10 (dose: 1.0 mg/kg/injection, schedule: Q01DX009 (ip), vehicle: saline with Tween-80).
For `COc1ccccc1N1C(=O)CSC1=S`, the survivor count was 6 of 10 under setting [1] and 0 of 10 under setting [2].
As for `O=c1[nH]c(-c2ccccc2)c(-c2ccccc2)[nH]1`, the survivor count under setting [7] is listed as 6 of 6.
In the case of `COc1cc(OC)cc(C(O)C(C)NC(C)C)c1` (configuration not stated), the T/C is 127 % of control (dose: 12.5 mg/kg/injection, schedule: Q01DX009 (ip), vehicle: saline) and 127 % of control (dose: 25.0 mg/kg/injection, schedule: Q01DX009 (ip), vehicle: saline).
As for `CC(=O)Nc1ccc2c(Nc3ccc(NS(C)(=O)=O)cc3)c3ccccc3nc2c1`, the T/C is, setting by setting: (dose: 15.0 mg/kg/injection, schedule: Q01DX009 (ip), vehicle: saline sonified) 143 % of control; (dose: 50.0 mg/kg/injection, schedule: Q01DX001 (ip), vehicle: saline sonified) 133 % of control; (dose: 100.0 mg/kg/injection, schedule: Q01DX001 (ip), vehicle: saline sonified) 130 % of control. For the same compound, the survivor count (dose: 60.0 mg/kg/injection, schedule: Q01DX009 (ip), vehicle: saline with Tween-80) is given as 6 of 6 and the survivor count (dose: 120.0 mg/kg/injection, schedule: Q01DX009 (ip), vehicle: saline with Tween-80) is recorded as 6 of 6.
In the case of `CC(C)NC(=O)c1ccc(N/N=[N+](/C)[O-])cc1`, the survivor count is given as 10 of 10 under setting [4] and 7 of 10 under setting [7].
For the compound `COc1cc([C@@H]2c3cc4c(cc3[C@H](O)[C@H]3COC(=O)[C@@H]23)OCO4)cc(OC)c1OC`, the survivor count (dose: 48.0 mg/kg/injection, schedule: Q01DX009 (ip), vehicle: Klucel (hydroxypropylcellulose) (HPC)) is 10 of 10 and the survivor count (dose: 96.0 mg/kg/injection, schedule: Q01DX009 (ip), vehicle: Klucel (hydroxypropylcellulose) (HPC)) is 4 of 10.
